The assay concerns the target GFP-CRY2 fusion protein from Arabidopsis seedlings overexpressing GFP-CRY2 (Arabidopsis) (UniProt Q96524). Kind of assay: affinity purification with mass spectrometry; GFP-trap beads on extract of Arabidopsis seedlings overexpressing GFP-CRY2; dark or blue light (30 μmol m^-2 s^-1); NEB buffer with 1% Triton X-100; label-free quantification.

The chains behind the UniProt entries cited, without tags or fusion partners.
UniProt Q96524: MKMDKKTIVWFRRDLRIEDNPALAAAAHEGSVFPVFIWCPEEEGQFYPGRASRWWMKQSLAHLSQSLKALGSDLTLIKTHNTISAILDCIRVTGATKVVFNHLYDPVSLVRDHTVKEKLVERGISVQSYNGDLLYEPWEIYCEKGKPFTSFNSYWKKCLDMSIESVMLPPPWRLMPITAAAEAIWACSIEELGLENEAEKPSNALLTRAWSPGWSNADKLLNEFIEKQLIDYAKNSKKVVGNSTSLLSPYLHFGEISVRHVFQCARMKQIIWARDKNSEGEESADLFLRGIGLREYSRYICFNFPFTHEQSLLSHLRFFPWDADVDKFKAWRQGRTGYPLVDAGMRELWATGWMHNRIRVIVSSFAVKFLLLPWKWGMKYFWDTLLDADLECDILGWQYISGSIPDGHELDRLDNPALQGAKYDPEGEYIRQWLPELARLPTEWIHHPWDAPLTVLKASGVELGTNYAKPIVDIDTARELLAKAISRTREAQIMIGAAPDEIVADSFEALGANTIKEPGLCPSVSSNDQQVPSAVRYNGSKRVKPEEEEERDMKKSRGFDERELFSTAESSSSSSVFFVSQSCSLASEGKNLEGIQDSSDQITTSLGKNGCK
UniProt Q9C7G4: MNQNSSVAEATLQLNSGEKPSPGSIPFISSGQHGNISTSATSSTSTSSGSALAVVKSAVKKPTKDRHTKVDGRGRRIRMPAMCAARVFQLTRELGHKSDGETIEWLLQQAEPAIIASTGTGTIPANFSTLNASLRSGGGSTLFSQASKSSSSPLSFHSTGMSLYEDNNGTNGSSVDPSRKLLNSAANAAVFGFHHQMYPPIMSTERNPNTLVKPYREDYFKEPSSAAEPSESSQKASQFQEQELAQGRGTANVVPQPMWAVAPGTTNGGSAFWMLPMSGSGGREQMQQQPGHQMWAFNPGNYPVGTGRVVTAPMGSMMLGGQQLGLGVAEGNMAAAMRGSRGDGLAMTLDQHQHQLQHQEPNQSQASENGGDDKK

These are yes or no findings as the source states them, for the method shown. Binding seen in cells or lysates may run through a third protein. A yes stands for co-enrichment or nearness to the bait. Other partners may have been found.

As for “TEOSINTE BRANCHED1-CYCLOIDEA-PCF 22 (TCP22), endogenous in GFP-CRY2 seedlings (from UniProt Q9C7G4 1-375)”, the binding result was “binds”.
